Data from article PMC6509835.
Results are given in words; binding and its absence hold for the method and conditions named. In cells and extracts the contact can be indirect. Some results given as binding are weak or reduced against the parent protein; the word gives no strength.

By UniProt entry, the sequences of proteins in these tests, tags left out.
UniProt P49841: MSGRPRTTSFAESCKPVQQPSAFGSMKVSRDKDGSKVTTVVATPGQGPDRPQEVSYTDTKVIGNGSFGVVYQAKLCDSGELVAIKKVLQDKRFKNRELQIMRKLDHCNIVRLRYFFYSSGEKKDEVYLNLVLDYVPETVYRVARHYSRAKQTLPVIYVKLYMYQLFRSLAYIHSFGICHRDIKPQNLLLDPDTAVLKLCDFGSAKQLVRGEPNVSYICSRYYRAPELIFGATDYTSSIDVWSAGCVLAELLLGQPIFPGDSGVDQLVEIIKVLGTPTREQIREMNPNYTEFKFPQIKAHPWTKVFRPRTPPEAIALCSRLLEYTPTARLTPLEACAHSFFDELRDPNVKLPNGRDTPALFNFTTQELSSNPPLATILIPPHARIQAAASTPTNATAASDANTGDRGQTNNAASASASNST
UniProt Q07812: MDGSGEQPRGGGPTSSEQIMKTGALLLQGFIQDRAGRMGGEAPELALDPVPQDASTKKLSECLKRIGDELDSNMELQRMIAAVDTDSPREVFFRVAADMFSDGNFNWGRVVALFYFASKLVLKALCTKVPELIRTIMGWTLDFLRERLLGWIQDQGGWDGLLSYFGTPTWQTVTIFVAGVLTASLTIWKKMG

Tests used:
[1] = target: Glycogen synthase kinase-3β (human (endogenous in human colon cancer cells)) (UniProt P49841); test: co-IP; endogenous proteins; GSK-3β or Bax antibody added to cell lysates, 2 h at ambient temperature, captured on protein A-agarose, Western blotting for GSK-3β or Bax; cells with or without 2 μg/ml SC66 treatment
[2] = target: Bcl-2-associated X protein (human (endogenous in human colon cancer cells)) (UniProt Q07812); test: as above

| binding [1] | binding [2] | Substance |
| --- | --- | --- |
| binds | – | Bcl-2-associated X protein (from UniProt Q07812 1-192) |
| – | binds | Glycogen synthase kinase-3β (from UniProt P49841 1-420) |
